The results in this text go back to article PMC11102469.

Results are given in words; binding and its absence hold for the method and conditions named. A result given as binding can be weak or reduced; the word gives no strength. Where a sequence is shown, tags or fusion partners need not be part of it.

The target of this assay is T1, MBP-tagged Rab11B (full-length, wild type) (Toxoplasma gondii) (UniProt Q7Z158).
T1 sequence: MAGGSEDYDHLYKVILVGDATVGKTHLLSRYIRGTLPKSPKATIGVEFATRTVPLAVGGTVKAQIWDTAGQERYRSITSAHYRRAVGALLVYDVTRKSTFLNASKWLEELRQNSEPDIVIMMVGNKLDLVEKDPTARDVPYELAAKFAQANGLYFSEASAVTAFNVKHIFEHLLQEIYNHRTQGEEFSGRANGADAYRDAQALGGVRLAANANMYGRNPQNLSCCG
Nature of the assay: pull-down; 4 µg MBP-Rab or MBP-Rab^QL held on 20 µL MBP agarose resin as bait (MBP protein binding buffer with 1 mM DTT, 1 mM PMSF, 4 °C, 2 h); 4 µg his-TBC9 or his-TBC9^R74A in 500 µL his protein binding buffer, 4 °C, 2 h; washes with 0.1% Triton X-100; Western blot with anti-His and anti-MBP; both purified. Background: Immunoblotting shows a protein as a band on a membrane.

In the case of “His-tagged TBC9^R74A (GAP-inactive mutant) (Toxoplasma gondii)”, the binding result was “binds”.
